Test results as given in PubChem BioAssay AID504327 (National Center for Advancing Translational Sciences (NCATS), 2011).
The campaign covered roughly 390,000 compounds. About 820 (0.21%) were called active. The inconclusive results got no clear call from the source; some entries with a clear call stand among them for comparison. The call rests on the fitted dose curve; in most records, active means well fitted inhibition curve with a large enough effect; inconclusive means small, poorly fitted or top-dose-only effect, or another doubt; inactive means no such curve, though single readings can be large or run the other way. Potencies beside an inconclusive call are fits to weak or partial responses and may not hold up.

By UniProt entry, the sequences of proteins in these tests, tags left out.
UniProt Q92830, whole entry, looked up: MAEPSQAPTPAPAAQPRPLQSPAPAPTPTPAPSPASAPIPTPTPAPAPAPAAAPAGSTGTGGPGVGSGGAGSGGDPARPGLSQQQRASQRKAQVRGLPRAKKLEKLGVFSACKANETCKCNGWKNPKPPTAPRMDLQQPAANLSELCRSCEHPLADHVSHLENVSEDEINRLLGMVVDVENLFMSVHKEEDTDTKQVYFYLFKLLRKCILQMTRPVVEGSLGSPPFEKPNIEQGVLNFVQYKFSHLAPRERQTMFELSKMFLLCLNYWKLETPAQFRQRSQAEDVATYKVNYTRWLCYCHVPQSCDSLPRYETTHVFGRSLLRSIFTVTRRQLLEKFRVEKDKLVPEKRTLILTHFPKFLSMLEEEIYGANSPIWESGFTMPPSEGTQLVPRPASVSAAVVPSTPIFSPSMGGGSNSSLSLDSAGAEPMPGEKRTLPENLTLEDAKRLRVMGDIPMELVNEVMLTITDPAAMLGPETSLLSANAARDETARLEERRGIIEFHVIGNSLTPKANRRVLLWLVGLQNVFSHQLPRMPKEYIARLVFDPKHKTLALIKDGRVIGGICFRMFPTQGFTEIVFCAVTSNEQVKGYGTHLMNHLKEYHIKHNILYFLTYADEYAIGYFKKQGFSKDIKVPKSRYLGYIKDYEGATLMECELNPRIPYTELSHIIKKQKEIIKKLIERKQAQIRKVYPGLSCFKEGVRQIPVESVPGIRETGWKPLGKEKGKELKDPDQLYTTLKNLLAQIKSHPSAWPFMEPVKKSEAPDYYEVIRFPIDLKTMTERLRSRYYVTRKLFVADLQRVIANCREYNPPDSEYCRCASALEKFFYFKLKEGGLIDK

target: Histone acetyltransferase KAT2A (Homo sapiens) (UniProt Q92830); test: qHTS Assay for Inhibitors of GCN5L2; settings: GCN5L2 HAT assay, ThioGlo1 CoA-SH fluorescence; activity change, negative = inhibition: at 58.9 µM (top of the series) unless noted
In short: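 qHTS, 1536-well. 20nM enzyme, pH 7.5 HEPES/EDTA/Tween-20 buffer; 15 min compound preinc., RT. Start: 75uM H3(1-25), 70uM AcCoA, 50uM ThioGlo1. Read Ex340/Em540 at t=0 (autofluorescence flag) and t=20 min.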
On the % scale 0 is the no-effect control and ±100 the full control effect; potency means the concentration at half of the fitted maximal effect.

SMILES | Potency | activity change, negative = inhibition
O=C(Nc1ccc(-c2cn3c(n2)SCC3)cc1)c1ccc2ccccc2n1 | inconclusive: 0.631 µM [inhibitor, single point] | 
CC(C)c1cc(C(=O)N2CCCC(N3CCN(c4ccc(F)cc4)CC3)C2)n(C)n1 (stereo unspecified) | inconclusive: 35.5 µM [inhibitor, partial curve] | 
O=c1c(CCc2ccccc2)nc2cnc(N3CCNCC3)nc2n1CCc1ccccc1 | inconclusive: 35.5 µM [inhibitor, single point] | 
CC(=O)Nc1ccc(C2CC(c3ccc(Cl)cc3)=NN2c2ccccc2)cc1 (stereo unspecified) | active: 31.6 µM | 
COc1ccccc1-c1nccc(NCc2cccs2)n1 | inconclusive: 28.2 µM [inhibitor, partial curve] | 
O=C(Cc1sc(Nc2ccccc2)nc1-c1ccccc1)NCc1ccccn1 | inactive | 
O=c1cnnc(Nc2cccc(C(F)(F)F)c2)[nH]1 | inactive | 
c1ccc(CSc2nnc([C@@H]3CCCN3)o2)cc1 | inactive | 
CCN1C(=O)c2cccc3c(S(=O)(=O)Nc4ccccn4)ccc1c23 | inconclusive: 2.51 µM [inhibitor, partial curve, poor fit] | 
COc1cc(/C=N/NC(=O)CSc2ccccn2)ccc1OC(C)C | inconclusive: 0.708 µM [inhibitor, full curve, poor fit] | 
CCCC(C)NS(=O)(=O)c1ccc(OC)c(C)c1 (stereo unspecified) | inconclusive: 39.8 µM [inhibitor, single point] | 
CCCc1cc(C(=O)O)c2ccccc2n1 |  | inconclusive: -87.2% [inhibitor] [at 0.501 µM]
CCOc1ccc(/C=C2/SC(=S)N(C(C(=O)O)c3ccccc3)C2=O)cc1OCC (stereo unspecified) | inconclusive: 31.6 µM [inhibitor, single point] | 
Cc1cc2nc(-c3ccc(SCc4ccc(C#N)cc4)nc3)[nH]c2cc1C | inconclusive: 31.6 µM [inhibitor, single point] | 
CC(=O)NC1(c2ccc(F)cc2)CCN(C(=O)Nc2ccc(F)cc2F)CC1 | inconclusive: 12.6 µM [inhibitor, single point] | 
CN(C)c1ncnc2ccc(-c3cccnc3)cc12 | inactive | 
Cc1ncc(CN2CCC(C(=O)Nc3ccc(Oc4cccnc4)cc3)CC2)cn1 | inconclusive: 0.447 µM [inhibitor, full curve, poor fit] | 
O=S(=O)(Nc1cccnc1)c1cccc(Cl)c1 | inactive | 
COc1ccc(/C=C2\Oc3cc(OCC(=O)N4CC(O)C[C@H]4C(=O)O)ccc3C2=O)cc1OC (stereo partly specified) | inconclusive: 25.1 µM [inhibitor, single point] | 
Cc1nonc1NC(=O)OC1CCCCC1 | inconclusive: 8.91 µM [inhibitor, single point] | 
COc1cccc(CNC(=O)[C@@H](C)N2C(=O)N3CCc4c([nH]c5ccc(OC)cc45)C3(C)C2=O)c1 (stereo partly specified) | inactive | 
COc1ccc(NS(=O)(=O)c2ccc(N3CCCC3)c(N)c2)cc1 | inactive | 
Cc1cc(OCC(=O)Nc2ccc(CN3CCOCC3)cc2)c2c(C)c(C)c(=O)oc2c1 | inconclusive: 20 µM [inhibitor, partial curve, poor fit] | 

SMILES | Potency | activity change, negative = inhibition
NS(=O)(=O)c1ccc(NS(=O)(=O)c2ccc(NC(=O)c3ccc(-c4ccccc4)cc3)cc2)cc1 | inconclusive: 25.1 µM [inhibitor, partial curve, poor fit] | 
O=[N+]([O-])c1ccc(O)c(NC(=S)Nc2ccccc2)c1 | inactive | 
COC(=O)Cc1c(C)c2ccc3c(c2oc1=O)CN(Cc1ccc(Cl)cc1)CO3 | inconclusive: 28.2 µM [inhibitor, partial curve] | 
CC(C)NC(=O)COC(=O)c1cc(=O)[nH]c2ccccc12 | inconclusive: 14.1 µM [inhibitor, partial curve] | 
CCc1cccc(NS(=O)(=O)c2ccc3c(c2)NC(=O)C(C)S3)c1 (stereo unspecified) | inconclusive: 39.8 µM [inhibitor, single point] | 
COc1ccc(-c2ccc(-c3noc(C4CCCCC4)n3)c(OC)n2)cc1 | inconclusive: 39.8 µM [inhibitor, single point] | 
O=C(COc1cccc2cccnc12)N/N=C/c1cccn1-c1ccc(F)cc1 | inactive | 
COc1ccccc1CN1CCCC(N2CCN(c3ccc(F)cc3)CC2)C1 (stereo unspecified) | inconclusive: 3.55 µM [inhibitor, partial curve] | 
CCn1nnnc1NC(=O)c1ccc2ccccc2c1 | inactive | 
O=C(/C=C/c1ccc(Br)o1)Nc1nccs1 | inactive | 
Cc1ccc(-n2c(=O)c3ccc(C(=O)NCc4ccccc4Cl)cc3n(Cc3cccc(F)c3)c2=O)cc1 | inactive | 
COc1ccc(-c2nn(C)c3sc(C(=O)Nc4cc(OC)c(OC)c(OC)c4)cc23)cc1OC | inconclusive: 31.6 µM [inhibitor, partial curve] | 
COc1cc(N)c(Cl)cc1C(=O)OCCN1CCCCC1 | inactive | 
c1ccc2[nH]c(CN3CCOCC3)nc2c1 | inactive | 
COc1ccc(C)cc1NC(=O)C1CCN(S(=O)(=O)Cc2ccccc2)CC1 | inactive | 
CCOc1ccc(C2c3[nH]c4ccccc4c3C[C@H]3C(=O)N(C4CC4)CC(=O)N23)cc1OC (stereo partly specified) | inconclusive: 0.112 µM [inhibitor, full curve, poor fit] | 
COc1cccc(CN2CCCN(Cc3ccc(F)cc3)S2(=O)=O)c1 | inactive | 
CN(CCOc1ccccc1)CC(=O)Nc1ccc(Br)cc1F | inactive | 
O=C(CSc1nnnn1-c1cccnc1)Nc1ccccc1F | inconclusive: 39.8 µM [inhibitor, single point] | 
Cc1ccc(NC(=O)CC2SC(=O)N(c3ccccc3)C2=O)cc1 (stereo unspecified) | inactive | 
CCS(=O)(=O)N1CCC(NC(=O)C(Cc2ccc(OC)c(OC)c2)NC(C)=O)CC1 (stereo unspecified) | inconclusive: 39.8 µM [inhibitor, single point] | 
Cc1ccc(/C=C2/NC(=O)N(Cc3ccccc3)C2=O)o1 | inconclusive: 39.8 µM [inhibitor, single point] | 
Cc1ccccc1C(=O)N1CCN(c2ccc([N+](=O)[O-])c(NCc3ccco3)c2)CC1 | inconclusive: 3.55 µM [inhibitor, partial curve] | 

A section taken from the entries so far:
SMILES | Potency | activity change, negative = inhibition
COc1ccc(-c2nn(C)c3sc(C(=O)Nc4cc(OC)c(OC)c(OC)c4)cc23)cc1OC | inconclusive: 31.6 µM [inhibitor, partial curve] | 
COc1cc(N)c(Cl)cc1C(=O)OCCN1CCCCC1 | inactive | 
c1ccc2[nH]c(CN3CCOCC3)nc2c1 | inactive | 

2 of the compounds above, with tabs:
SMILES	Potency	activity change, negative = inhibition
CC(C)NC(=O)COC(=O)c1cc(=O)[nH]c2ccccc12	inconclusive: 14.1 µM [inhibitor, partial curve]	
CCc1cccc(NS(=O)(=O)c2ccc3c(c2)NC(=O)C(C)S3)c1 (stereo unspecified)	inconclusive: 39.8 µM [inhibitor, single point]	
